Results deposited as PubChem BioAssay AID1159578 (Peter MacCallum Cancer Centre, 2015).
Shown is one part, drawn at random, of about 18,000 reagents tested. About 1,030 of all reagents (5.7%) count as active. 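Inactive calls also include pools with fewer than 3300 nuclei, whose migration was not assessed.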 The raw values are shown without normalisation. Entries without a mark were called inactive. Reagents against one gene are numbered here. Further read-outs or replicates are left out here. Reagent sequences are not shown.

Screen: 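Knock-downs that alter how fast lymphatic endothelial cells migrate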 (primary screen)
Cell system: human lymphatic endothelial cells
Reagents: siRNA pool against human genes, 40 nM
Timing: 48 h after transfection
Measurement: 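High-content imaging of dye-stained cells in a scratch assay measures filled wound area and nuclei per well; duplicate means given as ratio to mock and robust z-score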
Reading the numbers: migration robust z-score: higher = faster migration into the scratch; nuclei per well: higher = more cells in the well
Hit rule: 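Pools averaging fewer than 3300 nuclei are never called; remaining pools count as changed when migration robust z lies outside -2 to 2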
Meaning of the calls: active = migration changed; inactive = no migration change, or too few cells

For NUDT9 (GeneID 53343), the entry reads migration robust z-score -0.29; migration class with cell-count check migration z between -2 and 2; enough cells; nuclei per well, duplicate mean 5606. NAA20 (GeneID 51126) gave migration robust z-score 0.57; migration class with cell-count check migration z between -2 and 2; enough cells; nuclei per well, duplicate mean 4989. Against DPYSL4 (GeneID 10570), the entry reads migration robust z-score -1.01; migration class with cell-count check migration z between -2 and 2; enough cells; nuclei per well, duplicate mean 6632. With knock-down of MED17 (GeneID 9440), the record shows migration robust z-score -0.26; migration class with cell-count check migration z between -2 and 2; enough cells; nuclei per well, duplicate mean 5807. Knock-down of AKR1B10 (GeneID 57016) came out at: migration robust z-score -1.2; migration class with cell-count check migration z between -2 and 2; enough cells; nuclei per well, duplicate mean 5854. Knock-down of DCDC1 (GeneID 341019) #1 resulted in: migration robust z-score -0.16; migration class with cell-count check migration z between -2 and 2; enough cells; nuclei per well, duplicate mean 6270.

Against DCDC1 (GeneID 341019) #2, the entry reads migration robust z-score 0.84; migration class with cell-count check migration z between -2 and 2; enough cells; nuclei per well, duplicate mean 6957. CFHR3 (GeneID 10878) scored migration robust z-score 0.57; migration class with cell-count check migration z between -2 and 2; enough cells; nuclei per well, duplicate mean 6969. SIAH2 (GeneID 6478) scored migration robust z-score 1.4; migration class with cell-count check migration z between -2 and 2; enough cells; nuclei per well, duplicate mean 4608. For ZNF385D (GeneID 79750) the deposit lists migration robust z-score -0.44; migration class with cell-count check migration z between -2 and 2; enough cells; nuclei per well, duplicate mean 5679. AKNA (GeneID 80709) showed migration robust z-score -1.18; migration class with cell-count check migration z between -2 and 2; enough cells; nuclei per well, duplicate mean 4419. Depletion of ARTN (GeneID 9048) resulted in: migration robust z-score -0.9; migration class with cell-count check migration z between -2 and 2; enough cells; nuclei per well, duplicate mean 5912.
